At least one structure is not confirmed: it was looked up by name or label, or the drawing left a doubt.
Legend:
beta-catenin [1] = assay: Nuclear beta-catenin luciferase assay in TCF/LEF reporter_HEK293 cell line; type: cell-based; conditions: TCF/LEF reporter_HEK293, 1 μm or 10 μm, 24 hours, FIG. 1
beta-catenin [2] = assay: Western blot of intranuclear transfer of beta-catenin; type: cell-based; conditions: 1 μM, FIG. 2

| Compound | beta-catenin levels in the nucleus (luciferase activity) (beta-catenin [1]) | time at which the amount of intranuclear beta-catenin peaked (beta-catenin [2]) [h] | intranuclear transfer of beta-catenin (beta-catenin [2]; from 30 minutes after treatment) |
| --- | --- | --- | --- |
| C[C@H](CCC(=O)O)[C@H]1CC[C@H]2[C@@H]3CC[C@@H]4C[C@H](O)CC[C@]4(C)[C@H]3C[C@H](O)[C@]12C [deoxycholic acid] | significantly increased | 2 | increased |
| C[C@H](CCC(=O)O)[C@H]1CC[C@H]2[C@@H]3CC[C@@H]4C[C@H](O)CC[C@]4(C)[C@H]3CC[C@]12C [lithocholic acid] | significantly increased | – | – |
